Patent US9526786B2, “Thermostabilization of proteins” (The Trustee of Columbia University in the City of New York, priority 2007, dated 2016)
Some results were stated once for a whole list of compounds, not compound by compound.

Experiments:
[1] = Temperature-dependent decay in esterase activity (30 min pre-incubation); type: biochemical
Experimental: FIG. 26 is a graph showing temperature-dependent decay in esterase activity. 50 ng/ml wild-type CocE and the mutants were pre-incubated for 30 min at temperatures indicated (° C.) and activity measured (Xie et al., 1999). The activity of each mutant remaining (as a percentage of the maximal activity, Vmax, without preincubation) following pre-incubation are illustrated. Wild-type CocE (open bars) appears to inactivate between 30-35° C. whereas T172R/G173Q (shaded bars) and L169K (solid) both display enhance thermal stability (inactivation at 40-45° C.).
To test whether the improved enzymatic stability at 37° C. represents improved thermal stability of the protein fold, the capacity of the CocE at progressively higher temperatures were assessed (FIG. 26). The activity of wt CocE plummets precipitously after 30 min at approximately 30-35° C. Both L169K and T172R/G173Q each are inactivated at a higher temperature (40-45° C.). Circular dichroism analysis (near UV analysis) at varying temperatures, comparing wt-CocE and T172R/G173Q have melting temperatures in concordance with the loss of catalytic activity.

[2] = 37° C., within 90 min
Experimental: Analysis of CocE action on cocaine cleavage is performed by utilizing the spectroscopic properties of cocaine, which maximally absorbs light at a 240 nm wavelength. CocE activity is measured by monitoring for a decrease in signal at A240, using various concentrations of cocaine, and determining the initial rate of the decrease. From these values the Vmax of the enzyme can be determined. By pre-incubating the enzyme at 37° C. for various times before monitoring for activity, the half life of CocE at 37° C. can be calculated.
The initial rates (of decay) were determined by following the change in the intrinsic absorbance of cocaine at 240 nm (6700 M^1 cm^1)(Xie et al., 1999) using a SpectraMax Plus 384 UV plate reader (Molecular Devices, Sunnyvale, Calif.) using SOFTmax Pro software (Version 3.1.2). The reaction was initiated by adding 100 μL of a 2× enzyme solution (100 mM phosphate buffer, pH 7.4 and 300 mM NaCl) to 100 μL of a 2× cocaine solution (50 μg/mL enzyme, 100 mM Phosphate Buffer, pH 7.4 and 300 mM NaCl). All assays were performed with 100 μM DTT unless indicated otherwise. […] For stability measurements, wild type and mutant enzymes were diluted to 2× concentration and incubated at 37° C. for the times indicated. At the end of each time point, an aliquot was removed and kinetic behavior was observed as outlined above.
In vitro kinetic assays. […]

Molecule	temperature of inactivation [1]	activity remaining [2]
T172R/G173Q: CocE double mutant (protein, listed as Rhodococcus sp.) MVDGNYSVASNVMVPMRDGVRLAVDLYRPDADGPVPVLLVRNPYDKFDVFAWSTQSTNWLEFVRDGYAVVIQDTRGLFASEGEFVPHVDDEADAEDTLSWILEQAWCDGNVGMFGVSYLGVTQWQAAVSGVGGLKAIAPSMASADLYRAPWYGPGGALSVEALLGWSALIGRQLITSRSDARPEDAADFVQLAAILNDVAGAASVTPLAEQPLLGRLIPWVIDQVVDHPDNDESWQSISLFERLGGLATPALITAGWYDGFVGESLRTFVAVKDNADARLVVGPWSHSNLTGRNADRKFGIAATYPIQEATTMHKAFFDRHLRGETDALAGVPKVRLFVMGIDEWRDETDWPLPDTAYTPFYLGGSGAANTSTGGGTLSTSISGTESADTYLYDPADPVPSLGGTLLFHNGDNGPADQRPIHDRDDVLCYSTEVLTDPVEVTGTVSARLFVSSSAVDTDFTAKLVDVFPDGRAIALCDGIVRMRYRETLVNPTLIEAGEIYEVAIDMLATSNVFLPGHRIMVQVSSSNFPKYDRNSNTGGVIAREQLEEMCTAVNRIHRGPEHPSHIVLPIIKR	40-45 °C	–
L169K: CocE mutant (protein, listed as Rhodococcus sp.) MVDGNYSVASNVMVPMRDGVRLAVDLYRPDADGPVPVLLVRNPYDKFDVFAWSTQSTNWLEFVRDGYAVVIQDTRGLFASEGEFVPHVDDEADAEDTLSWILEQAWCDGNVGMFGVSYLGVTQWQAAVSGVGGLKAIAPSMASADLYRAPWYGPGGALSVEALLGWSAKIGTGLITSRSDARPEDAADFVQLAAILNDVAGAASVTPLAEQPLLGRLIPWVIDQVVDHPDNDESWQSISLFERLGGLATPALITAGWYDGFVGESLRTFVAVKDNADARLVVGPWSHSNLTGRNADRKFGIAATYPIQEATTMHKAFFDRHLRGETDALAGVPKVRLFVMGIDEWRDETDWPLPDTAYTPFYLGGSGAANTSTGGGTLSTSISGTESADTYLYDPADPVPSLGGTLLFHNGDNGPADQRPIHDRDDVLCYSTEVLTDPVEVTGTVSARLFVSSSAVDTDFTAKLVDVFPDGRAIALCDGIVRMRYRETLVNPTLIEAGEIYEVAIDMLATSNVFLPGHRIMVQVSSSNFPKYDRNSNTGGVIAREQLEEMCTAVNRIHRGPEHPSHIVLPIIKR	40-45 °C	–
G173Q: CocE mutant (protein, listed as Rhodococcus sp.) MVDGNYSVASNVMVPMRDGVRLAVDLYRPDADGPVPVLLVRNPYDKFDVFAWSTQSTNWLEFVRDGYAVVIQDTRGLFASEGEFVPHVDDEADAEDTLSWILEQAWCDGNVGMFGVSYLGVTQWQAAVSGVGGLKAIAPSMASADLYRAPWYGPGGALSVEALLGWSALIGTQLITSRSDARPEDAADFVQLAAILNDVAGAASVTPLAEQPLLGRLIPWVIDQVVDHPDNDESWQSISLFERLGGLATPALITAGWYDGFVGESLRTFVAVKDNADARLVVGPWSHSNLTGRNADRKFGIAATYPIQEATTMHKAFFDRHLRGETDALAGVPKVRLFVMGIDEWRDETDWPLPDTAYTPFYLGGSGAANTSTGGGTLSTSISGTESADTYLYDPADPVPSLGGTLLFHNGDNGPADQRPIHDRDDVLCYSTEVLTDPVEVTGTVSARLFVSSSAVDTDFTAKLVDVFPDGRAIALCDGIVRMRYRETLVNPTLIEAGEIYEVAIDMLATSNVFLPGHRIMVQVSSSNFPKYDRNSNTGGVIAREQLEEMCTAVNRIHRGPEHPSHIVLPIIKR	–	less than 10%
T172R: CocE mutant (protein, listed as Rhodococcus sp.) MVDGNYSVASNVMVPMRDGVRLAVDLYRPDADGPVPVLLVRNPYDKFDVFAWSTQSTNWLEFVRDGYAVVIQDTRGLFASEGEFVPHVDDEADAEDTLSWILEQAWCDGNVGMFGVSYLGVTQWQAAVSGVGGLKAIAPSMASADLYRAPWYGPGGALSVEALLGWSALIGRGLITSRSDARPEDAADFVQLAAILNDVAGAASVTPLAEQPLLGRLIPWVIDQVVDHPDNDESWQSISLFERLGGLATPALITAGWYDGFVGESLRTFVAVKDNADARLVVGPWSHSNLTGRNADRKFGIAATYPIQEATTMHKAFFDRHLRGETDALAGVPKVRLFVMGIDEWRDETDWPLPDTAYTPFYLGGSGAANTSTGGGTLSTSISGTESADTYLYDPADPVPSLGGTLLFHNGDNGPADQRPIHDRDDVLCYSTEVLTDPVEVTGTVSARLFVSSSAVDTDFTAKLVDVFPDGRAIALCDGIVRMRYRETLVNPTLIEAGEIYEVAIDMLATSNVFLPGHRIMVQVSSSNFPKYDRNSNTGGVIAREQLEEMCTAVNRIHRGPEHPSHIVLPIIKR	–	less than 10%
